Measured values: article PMC6208382
These are yes or no findings as the source states them, for the method shown. Binding seen in cells or lysates may run through a third protein. Some binding calls cover weakened binding; strength is not graded here.

The chains behind the UniProt entries cited, without tags or fusion partners.
UniProt P01106: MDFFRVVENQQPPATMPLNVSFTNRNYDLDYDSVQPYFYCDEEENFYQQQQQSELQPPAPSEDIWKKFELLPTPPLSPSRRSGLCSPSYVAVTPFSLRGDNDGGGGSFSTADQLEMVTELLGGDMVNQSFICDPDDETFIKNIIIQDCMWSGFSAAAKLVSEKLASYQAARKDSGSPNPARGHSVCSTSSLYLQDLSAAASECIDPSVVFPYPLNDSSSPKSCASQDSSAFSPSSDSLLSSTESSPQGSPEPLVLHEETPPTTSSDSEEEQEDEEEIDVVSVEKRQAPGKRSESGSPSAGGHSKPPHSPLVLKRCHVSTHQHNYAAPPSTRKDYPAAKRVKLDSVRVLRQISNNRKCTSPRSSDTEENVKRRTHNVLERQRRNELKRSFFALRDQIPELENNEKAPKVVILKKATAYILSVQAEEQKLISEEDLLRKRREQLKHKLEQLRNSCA

Target: MYC (human (endogenous in HepG2)) (UniProt P01106)
Assay: co-IP; co-immunoprecipitation with antibodies against MYC and TXNDC9, cytoplasmic lysate of HepG2 cells

B1: thioredoxin domain containing protein 9 (TXNDC9) (protein, UniProt O14530 1-226)
chain: MEADASVDMFSKVLEHQLLQTTKLVEEHLDSEIQKLDQMDEDELERLKEKRLQALRKAQQQKQEWLSKGHGEYREIPSERDFFQEVKESENVVCHFYRDSTFRCKILDRHLAILSKKHLETKFLKLNVEKAPFLCERLHIKVIPTLALLKDGKTQDYVVGFTDLGNTDDFTTETLEWRLGSSDILNYSGNLMEPPFQNQKKFGTNFTKLEKKTIRGKKYDSDSDDD
B1 was tested, and the binding was “binds”.
